The target in the assay is active β-catenin (mouse (endogenous in R7)) (UniProt Q02248). The assay is described as follows: co-IP; immunoprecipitation studies in R7 cells; data not shown; the precipitating antibody and the treatment with 1,25D3 are not told.

Protein sequences, listed by entry. Tags and fused reporters are not part of them.
UniProt Q02248: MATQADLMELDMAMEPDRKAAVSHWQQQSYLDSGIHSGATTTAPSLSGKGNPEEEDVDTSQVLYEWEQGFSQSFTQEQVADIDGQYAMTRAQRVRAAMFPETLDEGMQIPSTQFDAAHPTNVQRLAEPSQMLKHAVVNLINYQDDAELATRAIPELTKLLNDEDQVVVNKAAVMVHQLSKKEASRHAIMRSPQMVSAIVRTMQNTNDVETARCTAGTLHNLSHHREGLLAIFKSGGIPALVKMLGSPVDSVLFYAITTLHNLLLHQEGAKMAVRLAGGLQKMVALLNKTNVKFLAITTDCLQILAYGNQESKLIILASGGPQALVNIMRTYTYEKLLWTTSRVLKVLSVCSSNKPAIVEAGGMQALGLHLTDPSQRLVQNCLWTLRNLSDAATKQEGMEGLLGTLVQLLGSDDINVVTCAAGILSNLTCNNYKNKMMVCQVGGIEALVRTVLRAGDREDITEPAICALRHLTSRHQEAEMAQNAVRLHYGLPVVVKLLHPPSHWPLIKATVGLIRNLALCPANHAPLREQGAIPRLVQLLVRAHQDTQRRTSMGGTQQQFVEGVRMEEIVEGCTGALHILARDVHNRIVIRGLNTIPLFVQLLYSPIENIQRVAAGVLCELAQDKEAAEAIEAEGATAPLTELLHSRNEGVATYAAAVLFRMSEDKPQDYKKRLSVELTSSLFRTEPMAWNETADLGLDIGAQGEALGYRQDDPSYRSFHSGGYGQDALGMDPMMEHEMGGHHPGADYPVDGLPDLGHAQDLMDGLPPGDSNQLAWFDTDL

These are yes or no findings as the source states them, for the method shown. Binding seen in cells or lysates may run through a third protein. Some results given as binding are weak or reduced against the parent protein; the word gives no strength.

B1: vitamin D receptor (protein, UniProt P48281 1-422)
chain: MEAMAASTSLPDPGDFDRNVPRICGVCGDRATGFHFNAMTCEGCKGFFRRSMKRKALFTCPFNGDCRITKDNRRHCQACRLKRCVDIGMMKEFILTDEEVQRKREMIMKRKEEEALKDSLRPKLSEEQQHIIAILLDAHHKTYDPTYADFRDFRPPIRADVSTGSYSPRPTLSFSGDSSSNSDLYTPSLDMMEPASFSTMDLNEEGSDDPSVTLDLSPLSMLPHLADLVSYSIQKVIGFAKMIPGFRDLTSDDQIVLLKSSAIEVIMLRSNQSFTLDDMSWDCGSQDYKYDITDVSRAGHTLELIEPLIKFQVGLKKLNLHEEEHVLLMAICIVSPDRPGVQDAKLVEAIQDRLSNTLQTYIRCRHPPPGSHQLYAKMIQKLADLRSLNEEHSKQYRSLSFQPENSMKLTPLVLEVFGNEIS
On to B1, for which the binding result is reported as “binds”.

The values are drawn from article PMC4599271.
